{"source": "paper PMC5903342", "about": "“Atorvastatin Downregulates In Vitro Methyl Methanesulfonate and Cyclophosphamide Alkylation-Mediated Cellular and DNA Injuries” (Oxidative Medicine and Cellular Longevity, 2018)", "key": {"[1]": {"tested_on": "Salmonella enterica serovar typhimurium TA102", "assay": "Antimutagenicity assay (Salmonella/microsome), strain TA102", "type": "cell-based", "details": "TA102, cotreatment", "description": "(§1) Salmonella enterica serovar typhimurium (S. typhimurium) strains TA100, TA1535, TA104, and TA102 from the authors' laboratory stock were used as described by Maron and Ames in the antimutagenicity assay.\n(§2) We carried out the coexposure protocol of the antimutagenicity assay to investigate the potential of the compound to protect against alkylation-mediated genetic mutation in S. typhimurium TA100, TA102, TA104, and TA1535 strains according to Ajith and Soja. The test proceeded both in the absence and presence of a metabolic activation system (4% S9 mix, Aroclor preinduced, from MOLTOX Inc., USA). DMSO 1% served as the negative control. For the assays without metabolic activation, 0.5 mL of a 0.1 mol/L sodium phosphate buffer (pH 7.4) was added, and for the assays in the presence of metabolic activation, 0.5 mL of S9 mix was mixed with a 0.1 mL culture medium (2 × 10^8 cells/mL) plus 0.1 mL of AVA solutions (0–1000 μM) and 0.1 mL MMS (100 μg/plate) in the absence of metabolic activation and CPA (100 μg/plate) in metabolic active conditions. The mixtures were incubated in a shaker at 37°C (preincubation) under light protection. After a total of 60 min of cotreatment, the mixtures were added to and mixed with 2 mL top agar containing 0.05 mmol/L L-histidine and D-biotin for the S. typhimurium strains. Each of these was then spread on a minimal glucose agar (1.5% agar, Vogel-Bonner medium E, containing 2% glucose) plate. After the top agar solidified, the plates were incubated at 37°C for 60–72 h. Each tester strain was assayed in triplicate and repeated at least twice, and the number of revertant colonies was counted for each tester strain and treatment group. The counts of revertant colonies were obtained to build a dose-response curve and calculate the percentage of reduction."}, "in vitro": {"assay": "in vitro", "type": "cell-based", "details": "human"}, "[2]": {"tested_on": "Salmonella enterica serovar typhimurium TA100", "assay": "Antimutagenicity assay (Salmonella/microsome), strain TA100 (co-, pre- and posttreatment)", "type": "cell-based"}, "[3]": {"tested_on": "Salmonella enterica serovar typhimurium TA98 and TA100 strains", "details": "sodium azide or 4-nitro-o-phenylenediamine, TA98 and TA100, absence of metabolic activation; cited from earlier work"}, "[4]": {"tested_on": "Salmonella enterica serovar typhimurium TA1535", "assay": "Antimutagenicity assay (Salmonella/microsome), strain TA1535", "type": "cell-based", "details": "TA1535, cotreatment", "description": "as §1, §2"}, "human lymphocyte": {"tested_on": "human lymphocyte", "details": "human lymphocytes, even at nM concentrations; cited from earlier work"}, "[5]": {"tested_on": "Salmonella enterica serovar typhimurium TA104", "assay": "Antimutagenicity assay (Salmonella/microsome), strain TA104", "type": "cell-based", "details": "TA104, cotreatment", "description": "as §1, §2"}, "[6]": {"details": "+S9, CPA (150 μM), atorvastatin 20 μM"}, "[7]": {"details": "+S9, CPA (150 μM), atorvastatin 100 μM"}, "[8]": {"details": "+S9, CPA (150 μM), atorvastatin 200 μM"}, "[9]": {"details": "+S9, CPA (150 μM), atorvastatin 1000 μM"}, "[10]": {"details": "−S9, MMS (100 μM), atorvastatin 20 μM"}, "[11]": {"details": "−S9, MMS (100 μM), atorvastatin 100 μM"}, "[12]": {"details": "−S9, MMS (100 μM), atorvastatin 200 μM"}, "[13]": {"details": "−S9, MMS (100 μM), atorvastatin 1000 μM"}}}
{"smiles": "CC(C)c1c(C(=O)Nc2ccccc2)c(-c2ccccc2)c(-c2ccc(F)cc2)n1CC[C@@H](O)C[C@@H](O)CC(=O)O", "note": "[AVA, atorvastatin]", "values": [{"measurement": "MI (mutagenicity index)", "setting": "[1]; [6]", "value": 2.02}, {"measurement": "MI (mutagenicity index)", "setting": "[1]; [7]", "value": 2.00}, {"measurement": "MI (mutagenicity index)", "setting": "[1]; [8]", "value": 1.94}, {"measurement": "MI (mutagenicity index)", "setting": "[1]; [9]", "value": 1.77}, {"measurement": "MI (mutagenicity index)", "setting": "[1]; [10]", "value": 2.10}, {"measurement": "MI (mutagenicity index)", "setting": "[1]; [11]", "value": 2.06}, {"measurement": "MI (mutagenicity index)", "setting": "[1]; [12]", "value": 1.93}, {"measurement": "MI (mutagenicity index)", "setting": "[1]; [13]", "value": 1.77}, {"measurement": "CC50 at 24 h", "setting": "in vitro", "value": "> 1000", "unit": "µM"}, {"measurement": "Protection against MMS or CPA mutagenicity", "setting": "[2]; TA100, cotreatment", "value": "did not protect"}, {"measurement": "MI (mutagenicity index)", "setting": "[2]; TA100, cotreatment, +S9, CPA (150 μM), atorvastatin 20 μM", "value": 2.10}, {"measurement": "MI (mutagenicity index)", "setting": "[2]; TA100, cotreatment, +S9, CPA (150 μM), atorvastatin 100 μM", "value": 2.06}, {"measurement": "MI (mutagenicity index)", "setting": "[2]; TA100, cotreatment, +S9, CPA (150 μM), atorvastatin 200 μM", "value": 2.00}, {"measurement": "MI (mutagenicity index)", "setting": "[2]; TA100, cotreatment, +S9, CPA (150 μM), atorvastatin 1000 μM", "value": 1.93}, {"measurement": "MI (mutagenicity index)", "setting": "[2]; TA100, cotreatment, −S9, MMS (100 μM), atorvastatin 20 μM", "value": 2.04}, {"measurement": "MI (mutagenicity index)", "setting": "[2]; TA100, cotreatment, −S9, MMS (100 μM), atorvastatin 100 μM", "value": 1.98}, {"measurement": "MI (mutagenicity index)", "setting": "[2]; TA100, cotreatment, −S9, MMS (100 μM), atorvastatin 200 μM", "value": 1.90}, {"measurement": "MI (mutagenicity index)", "setting": "[2]; TA100, cotreatment, −S9, MMS (100 μM), atorvastatin 1000 μM", "value": 1.86}, {"measurement": "MI (mutagenicity index)", "setting": "[2]; TA100, posttreatment, +S9, CPA (150 μM), atorvastatin 20 μM", "value": 2.46}, {"measurement": "MI (mutagenicity index)", "setting": "[2]; TA100, posttreatment, +S9, CPA (150 μM), atorvastatin 200 μM", "value": 2.34}, {"measurement": "MI (mutagenicity index)", "setting": "[2]; TA100, posttreatment, +S9, CPA (150 μM), atorvastatin 1000 μM", "value": 2.30}, {"measurement": "MI (mutagenicity index)", "setting": "[2]; TA100, posttreatment, −S9, MMS (100 μM), atorvastatin 20 μM", "value": 2.03}, {"measurement": "MI (mutagenicity index)", "setting": "[2]; TA100, posttreatment, −S9, MMS (100 μM), atorvastatin 100 μM", "value": 1.96}, {"measurement": "MI (mutagenicity index)", "setting": "[2]; TA100, posttreatment, −S9, MMS (100 μM), atorvastatin 200 μM", "value": 1.87}, {"measurement": "MI (mutagenicity index)", "setting": "[2]; TA100, posttreatment, −S9, MMS (100 μM), atorvastatin 1000 μM", "value": 1.84}, {"measurement": "MI (mutagenicity index)", "setting": "[2]; TA100, pretreatment, +S9, CPA (150 μM), atorvastatin 20 μM", "value": 1.30}, {"measurement": "MI (mutagenicity index)", "setting": "[2]; TA100, pretreatment, +S9, CPA (150 μM), atorvastatin 100 μM", "value": 1.27}, {"measurement": "MI (mutagenicity index)", "setting": "[2]; TA100, pretreatment, +S9, CPA (150 μM), atorvastatin 200 μM", "value": 1.11}, {"measurement": "MI (mutagenicity index)", "setting": "[2]; TA100, pretreatment, +S9, CPA (150 μM), atorvastatin 1000 μM", "value": 1.03}, {"measurement": "MI (mutagenicity index)", "setting": "[2]; TA100, pretreatment, −S9, MMS (100 μM), atorvastatin 20 μM", "value": 1.68}, {"measurement": "MI (mutagenicity index)", "setting": "[2]; TA100, pretreatment, −S9, MMS (100 μM), atorvastatin 100 μM", "value": 1.14}, {"measurement": "MI (mutagenicity index)", "setting": "[2]; TA100, pretreatment, −S9, MMS (100 μM), atorvastatin 200 μM", "value": 1.11}, {"measurement": "MI (mutagenicity index)", "setting": "[2]; TA100, pretreatment, −S9, MMS (100 μM), atorvastatin 1000 μM", "value": 1.02}, {"measurement": "Antimutagenic (chemopreventive) effect against direct mutagens", "setting": "[3]", "value": "significantly inhibited the mutagenic response"}, {"measurement": "MI (mutagenicity index)", "setting": "[4]; [6]", "value": 2.63}, {"measurement": "MI (mutagenicity index)", "setting": "[4]; [7]", "value": 2.60}, {"measurement": "MI (mutagenicity index)", "setting": "[4]; [8]", "value": 2.25}, {"measurement": "MI (mutagenicity index)", "setting": "[4]; [9]", "value": 2.04}, {"measurement": "MI (mutagenicity index)", "setting": "[4]; [10]", "value": 2.00}, {"measurement": "MI (mutagenicity index)", "setting": "[4]; [11]", "value": 1.60}, {"measurement": "MI (mutagenicity index)", "setting": "[4]; [12]", "value": 1.24}, {"measurement": "MI (mutagenicity index)", "setting": "[4]; [13]", "value": 1.16}, {"measurement": "Genotoxic damage (chromosome aberrations, sister chromatid exchange, comet assay)", "setting": "human lymphocyte", "value": "genotoxic damage"}, {"measurement": "MI (mutagenicity index)", "setting": "[5]; [6]", "value": 2.13}, {"measurement": "MI (mutagenicity index)", "setting": "[5]; [7]", "value": 2.05}, {"measurement": "MI (mutagenicity index)", "setting": "[5]; [8]", "value": 1.99}, {"measurement": "MI (mutagenicity index)", "setting": "[5]; [9]", "value": 1.82}, {"measurement": "MI (mutagenicity index)", "setting": "[5]; [10]", "value": 2.00}, {"measurement": "MI (mutagenicity index)", "setting": "[5]; [11]", "value": 1.94}, {"measurement": "MI (mutagenicity index)", "setting": "[5]; [12]", "value": 1.84}, {"measurement": "MI (mutagenicity index)", "setting": "[5]; [13]", "value": 1.55}]}
